Our source for the gametocyte viability values is the supplement of paper PMC12297408.

What follows is the remainder of the data, with few or none of the hits.

One experiment has as its system Plasmodium falciparum NF54/iGP1_RE9H ulg8 stage V gametocytes. Nature of the experiment: gametocyte viability (luciferase signal relative to DMSO control) (% of DMSO control); higher = less gametocytocidal activity, active = 50 or less. The following applies: concentration: 1 µM; exposure time: 72 h. The protocol: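 Synchronous P. falciparum NF54/iGP1_RE9H ulg8 mature stage V gametocytes (day 12) were exposed to Cayman Epigenetics Screening Library compounds at 10 µM or 1 µM for 72 h at 37 °C. Viability was read as RE9H luciferase bioluminescence, normalised to DMSO plate controls (100%); 50 µM methylene blue was the positive control. Single point; hits were called at >50% inhibition.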
With `Cc1ccc(C(=O)NCCCCCC(=O)Nc2ccccc2N)cc1`, the gametocyte viability is inactive: 83.5.

Still in this experiment, the particulars now being: concentration: 10 µM; exposure time: 72 h.
Consider `Cc1ccc(C(=O)NCCCCCC(=O)Nc2ccccc2N)cc1`, for which the gametocyte viability is inactive: 87.
